Source: the supplement of paper PMC10849652
Some of the results follow.

Chains of the proteins cited; added tags and fusions are not shown. Lines headed by an entry give the natural chain unless they say otherwise; changes in a name come on top.
UniProt Q6PII5: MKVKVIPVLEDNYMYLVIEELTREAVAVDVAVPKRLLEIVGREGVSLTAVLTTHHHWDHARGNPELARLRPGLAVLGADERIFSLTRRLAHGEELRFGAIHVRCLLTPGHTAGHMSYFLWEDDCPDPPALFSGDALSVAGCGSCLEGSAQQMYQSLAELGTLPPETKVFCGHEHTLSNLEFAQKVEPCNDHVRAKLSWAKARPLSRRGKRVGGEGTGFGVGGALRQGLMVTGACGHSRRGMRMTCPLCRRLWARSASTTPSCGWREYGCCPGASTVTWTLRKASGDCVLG
UniProt Q99871: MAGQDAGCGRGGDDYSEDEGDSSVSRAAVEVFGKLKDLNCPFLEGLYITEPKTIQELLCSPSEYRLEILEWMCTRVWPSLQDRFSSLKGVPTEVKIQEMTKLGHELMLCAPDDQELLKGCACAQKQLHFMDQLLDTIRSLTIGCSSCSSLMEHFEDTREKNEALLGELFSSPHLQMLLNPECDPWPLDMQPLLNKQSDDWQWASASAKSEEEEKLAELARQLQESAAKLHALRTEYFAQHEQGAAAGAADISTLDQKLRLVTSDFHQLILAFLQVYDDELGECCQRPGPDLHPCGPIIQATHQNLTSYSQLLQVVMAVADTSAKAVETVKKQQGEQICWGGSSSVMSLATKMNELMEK
UniProt Q9BY41: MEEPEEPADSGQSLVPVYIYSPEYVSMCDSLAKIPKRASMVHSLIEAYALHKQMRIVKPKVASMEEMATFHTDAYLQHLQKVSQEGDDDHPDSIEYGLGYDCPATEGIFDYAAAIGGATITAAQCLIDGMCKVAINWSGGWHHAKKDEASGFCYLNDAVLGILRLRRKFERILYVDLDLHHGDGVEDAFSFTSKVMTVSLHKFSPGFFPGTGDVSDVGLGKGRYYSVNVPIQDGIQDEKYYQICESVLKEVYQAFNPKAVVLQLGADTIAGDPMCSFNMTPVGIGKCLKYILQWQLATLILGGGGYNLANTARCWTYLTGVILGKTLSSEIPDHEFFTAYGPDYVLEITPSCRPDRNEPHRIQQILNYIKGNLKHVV
UniProt Q14469: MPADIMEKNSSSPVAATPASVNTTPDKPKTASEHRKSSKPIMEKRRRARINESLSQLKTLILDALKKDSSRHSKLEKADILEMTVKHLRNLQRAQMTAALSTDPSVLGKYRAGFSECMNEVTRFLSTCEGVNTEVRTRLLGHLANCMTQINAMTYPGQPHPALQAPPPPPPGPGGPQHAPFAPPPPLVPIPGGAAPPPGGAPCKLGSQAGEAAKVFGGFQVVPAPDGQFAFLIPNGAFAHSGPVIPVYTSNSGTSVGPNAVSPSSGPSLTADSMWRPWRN
UniProt O43824: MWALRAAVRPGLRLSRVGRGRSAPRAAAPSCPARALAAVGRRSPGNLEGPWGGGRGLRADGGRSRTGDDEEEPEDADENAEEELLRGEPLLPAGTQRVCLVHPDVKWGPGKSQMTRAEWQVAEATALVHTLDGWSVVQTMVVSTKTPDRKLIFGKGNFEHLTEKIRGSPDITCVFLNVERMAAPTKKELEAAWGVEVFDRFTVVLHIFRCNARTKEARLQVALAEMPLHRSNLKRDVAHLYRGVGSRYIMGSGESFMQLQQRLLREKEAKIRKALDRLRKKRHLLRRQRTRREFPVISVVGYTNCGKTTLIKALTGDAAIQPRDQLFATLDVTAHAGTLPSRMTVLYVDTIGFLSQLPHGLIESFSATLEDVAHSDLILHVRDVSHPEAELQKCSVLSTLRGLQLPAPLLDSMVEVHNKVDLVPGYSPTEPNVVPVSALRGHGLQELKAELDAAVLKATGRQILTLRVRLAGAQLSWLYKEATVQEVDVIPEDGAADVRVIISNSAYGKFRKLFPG
UniProt Q15011: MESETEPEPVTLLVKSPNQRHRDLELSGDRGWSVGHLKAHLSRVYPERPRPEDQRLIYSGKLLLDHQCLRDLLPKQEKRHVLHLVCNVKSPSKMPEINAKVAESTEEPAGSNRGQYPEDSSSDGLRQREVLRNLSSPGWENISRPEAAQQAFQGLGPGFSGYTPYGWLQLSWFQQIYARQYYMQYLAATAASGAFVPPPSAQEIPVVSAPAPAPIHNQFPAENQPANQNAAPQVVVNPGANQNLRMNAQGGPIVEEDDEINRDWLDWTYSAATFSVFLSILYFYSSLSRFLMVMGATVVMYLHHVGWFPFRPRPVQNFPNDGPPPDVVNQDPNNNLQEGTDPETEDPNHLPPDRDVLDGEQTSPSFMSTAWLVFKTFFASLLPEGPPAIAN
UniProt Q9UQL6: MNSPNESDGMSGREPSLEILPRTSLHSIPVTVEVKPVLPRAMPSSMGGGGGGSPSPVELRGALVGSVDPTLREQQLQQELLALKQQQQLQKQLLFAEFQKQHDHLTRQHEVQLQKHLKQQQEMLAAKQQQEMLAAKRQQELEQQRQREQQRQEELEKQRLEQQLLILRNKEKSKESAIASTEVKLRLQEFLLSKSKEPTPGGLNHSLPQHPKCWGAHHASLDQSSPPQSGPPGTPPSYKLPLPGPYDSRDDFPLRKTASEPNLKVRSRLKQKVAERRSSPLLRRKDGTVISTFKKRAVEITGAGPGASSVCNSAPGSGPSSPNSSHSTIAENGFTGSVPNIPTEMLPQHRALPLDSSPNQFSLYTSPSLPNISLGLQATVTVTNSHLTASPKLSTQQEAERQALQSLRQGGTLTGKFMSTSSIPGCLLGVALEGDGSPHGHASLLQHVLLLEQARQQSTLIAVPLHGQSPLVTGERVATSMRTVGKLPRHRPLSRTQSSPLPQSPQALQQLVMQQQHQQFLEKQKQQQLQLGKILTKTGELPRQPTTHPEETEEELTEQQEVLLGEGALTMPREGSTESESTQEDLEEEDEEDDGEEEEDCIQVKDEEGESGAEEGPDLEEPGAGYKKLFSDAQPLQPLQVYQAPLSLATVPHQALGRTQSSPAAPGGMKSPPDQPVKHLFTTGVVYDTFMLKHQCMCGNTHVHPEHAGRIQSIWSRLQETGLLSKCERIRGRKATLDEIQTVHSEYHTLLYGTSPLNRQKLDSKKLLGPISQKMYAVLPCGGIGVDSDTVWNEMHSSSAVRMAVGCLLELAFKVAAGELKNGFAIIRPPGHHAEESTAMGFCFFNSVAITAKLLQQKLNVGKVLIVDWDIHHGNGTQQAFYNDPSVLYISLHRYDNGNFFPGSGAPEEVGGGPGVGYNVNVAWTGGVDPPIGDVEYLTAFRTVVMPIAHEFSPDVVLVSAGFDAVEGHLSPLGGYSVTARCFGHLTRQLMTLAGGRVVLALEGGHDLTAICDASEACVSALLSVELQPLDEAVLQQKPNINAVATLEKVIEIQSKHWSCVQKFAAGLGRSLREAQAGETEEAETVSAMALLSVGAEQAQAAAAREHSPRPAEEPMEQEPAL
UniProt P07305, whole entry, looked up: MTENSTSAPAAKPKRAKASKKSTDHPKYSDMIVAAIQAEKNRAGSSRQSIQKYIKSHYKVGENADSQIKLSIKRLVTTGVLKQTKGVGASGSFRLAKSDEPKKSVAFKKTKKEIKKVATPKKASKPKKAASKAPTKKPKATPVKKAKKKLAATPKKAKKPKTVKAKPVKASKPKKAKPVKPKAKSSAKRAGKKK
UniProt O15488: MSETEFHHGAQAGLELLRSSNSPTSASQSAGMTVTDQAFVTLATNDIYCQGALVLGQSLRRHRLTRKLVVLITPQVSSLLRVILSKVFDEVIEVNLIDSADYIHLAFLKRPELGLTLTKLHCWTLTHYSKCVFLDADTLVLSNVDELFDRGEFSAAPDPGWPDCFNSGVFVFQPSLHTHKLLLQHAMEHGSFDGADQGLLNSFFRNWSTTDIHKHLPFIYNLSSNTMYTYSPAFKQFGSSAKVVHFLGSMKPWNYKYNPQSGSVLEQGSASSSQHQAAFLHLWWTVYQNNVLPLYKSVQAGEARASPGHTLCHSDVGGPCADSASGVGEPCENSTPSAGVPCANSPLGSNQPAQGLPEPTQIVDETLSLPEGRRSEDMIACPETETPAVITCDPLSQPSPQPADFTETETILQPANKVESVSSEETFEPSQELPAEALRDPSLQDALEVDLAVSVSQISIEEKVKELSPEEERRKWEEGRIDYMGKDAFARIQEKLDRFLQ
UniProt A2PYH4: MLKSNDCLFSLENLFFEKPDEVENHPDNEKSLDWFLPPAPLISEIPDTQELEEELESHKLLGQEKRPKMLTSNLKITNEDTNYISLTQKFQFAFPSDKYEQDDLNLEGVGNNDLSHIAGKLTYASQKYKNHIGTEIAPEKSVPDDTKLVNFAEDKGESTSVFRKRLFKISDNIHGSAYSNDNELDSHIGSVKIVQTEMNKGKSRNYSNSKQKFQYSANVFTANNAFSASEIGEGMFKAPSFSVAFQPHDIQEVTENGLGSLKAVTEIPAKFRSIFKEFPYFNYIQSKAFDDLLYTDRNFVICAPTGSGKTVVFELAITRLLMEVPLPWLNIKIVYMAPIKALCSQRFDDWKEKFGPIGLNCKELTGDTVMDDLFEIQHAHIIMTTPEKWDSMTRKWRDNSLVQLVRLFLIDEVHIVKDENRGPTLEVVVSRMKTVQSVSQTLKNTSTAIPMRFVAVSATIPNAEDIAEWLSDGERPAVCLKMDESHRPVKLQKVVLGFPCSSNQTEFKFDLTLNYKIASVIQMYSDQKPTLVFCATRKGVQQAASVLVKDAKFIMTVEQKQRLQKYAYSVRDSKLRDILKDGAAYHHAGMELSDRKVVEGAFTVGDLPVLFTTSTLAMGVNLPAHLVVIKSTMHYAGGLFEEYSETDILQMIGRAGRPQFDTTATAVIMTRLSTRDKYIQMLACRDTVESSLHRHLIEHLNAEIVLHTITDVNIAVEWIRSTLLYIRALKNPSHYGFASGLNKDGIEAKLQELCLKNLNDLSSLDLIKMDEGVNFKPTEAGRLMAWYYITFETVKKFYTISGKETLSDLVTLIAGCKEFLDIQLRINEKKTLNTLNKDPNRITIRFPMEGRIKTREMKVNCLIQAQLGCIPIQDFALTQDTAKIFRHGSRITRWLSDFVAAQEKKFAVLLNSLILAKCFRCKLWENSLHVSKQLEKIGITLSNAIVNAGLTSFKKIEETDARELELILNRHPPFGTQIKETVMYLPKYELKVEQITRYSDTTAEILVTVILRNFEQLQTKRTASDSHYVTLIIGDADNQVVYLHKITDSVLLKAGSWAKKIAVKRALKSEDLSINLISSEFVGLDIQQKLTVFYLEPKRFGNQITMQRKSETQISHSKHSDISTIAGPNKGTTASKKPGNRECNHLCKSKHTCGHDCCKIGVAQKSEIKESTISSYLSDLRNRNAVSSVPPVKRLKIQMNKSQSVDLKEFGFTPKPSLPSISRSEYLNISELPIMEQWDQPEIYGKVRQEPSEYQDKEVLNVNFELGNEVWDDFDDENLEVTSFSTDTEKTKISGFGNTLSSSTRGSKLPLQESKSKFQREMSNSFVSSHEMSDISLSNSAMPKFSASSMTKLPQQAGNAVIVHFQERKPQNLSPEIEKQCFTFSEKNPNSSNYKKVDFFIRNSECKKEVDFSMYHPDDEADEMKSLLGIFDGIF
UniProt Q96MH2: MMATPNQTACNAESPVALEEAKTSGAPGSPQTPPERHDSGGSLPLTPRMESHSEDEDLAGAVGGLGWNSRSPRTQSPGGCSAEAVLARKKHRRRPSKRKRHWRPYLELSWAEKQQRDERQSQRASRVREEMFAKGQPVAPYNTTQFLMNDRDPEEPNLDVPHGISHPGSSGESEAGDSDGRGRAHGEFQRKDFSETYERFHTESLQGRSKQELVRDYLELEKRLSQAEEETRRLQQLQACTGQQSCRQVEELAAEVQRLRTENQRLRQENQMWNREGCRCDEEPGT
UniProt Q9NRZ9: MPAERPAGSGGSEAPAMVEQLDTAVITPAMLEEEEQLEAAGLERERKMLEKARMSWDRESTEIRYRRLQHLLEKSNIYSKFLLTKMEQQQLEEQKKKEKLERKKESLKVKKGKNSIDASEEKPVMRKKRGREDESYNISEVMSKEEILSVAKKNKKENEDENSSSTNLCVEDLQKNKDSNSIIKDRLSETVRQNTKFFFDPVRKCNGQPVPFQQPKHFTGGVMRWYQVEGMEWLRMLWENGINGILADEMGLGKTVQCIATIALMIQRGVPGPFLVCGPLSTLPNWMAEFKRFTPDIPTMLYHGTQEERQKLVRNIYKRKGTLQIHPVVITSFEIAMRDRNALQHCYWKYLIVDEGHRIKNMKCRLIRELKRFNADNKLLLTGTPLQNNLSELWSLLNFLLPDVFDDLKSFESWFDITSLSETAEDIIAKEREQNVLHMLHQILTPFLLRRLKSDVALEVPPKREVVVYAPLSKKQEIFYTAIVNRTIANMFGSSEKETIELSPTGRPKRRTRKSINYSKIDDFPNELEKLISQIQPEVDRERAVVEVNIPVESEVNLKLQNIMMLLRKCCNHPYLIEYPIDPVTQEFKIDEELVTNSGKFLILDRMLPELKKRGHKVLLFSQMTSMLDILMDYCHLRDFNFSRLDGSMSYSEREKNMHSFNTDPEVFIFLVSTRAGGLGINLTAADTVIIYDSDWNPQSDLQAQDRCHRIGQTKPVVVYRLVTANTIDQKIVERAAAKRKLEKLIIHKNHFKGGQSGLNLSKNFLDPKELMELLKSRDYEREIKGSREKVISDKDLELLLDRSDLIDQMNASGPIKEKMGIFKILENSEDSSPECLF

How the values were obtained:
Experiment in all cases: log2 fold change, soluble protein after heating vs DMSO (PISA); higher = thermal stabilisation; K562 cells, 10 uM, 30 min; active = over 0.2 and 3.5 SD of the protein, either way, in both replicates (recomputed)
[1] = compound: CC[C@@H]1C(=O)N(C)c2cnc(Nc3ccc(C(=O)NC4CCN(C)CC4)cc3OC)nc2N1C1CCCC1
How it was run: (§1)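 Soluble protein was defined as the supernatant after 21,000xg for 90 min. It came from K562 cells at 2×10^6 cells/mL given 10 μM compound for 30 min, heated in aliquots for 3 min across 48°C-58°C, pooled, and extracted in PBS with 0.5% NP-40 at 4°C, and was quantified by TMTpro 16plex LC-MS/MS with equalised channel sums. Thermal stability against control samples, from duplicates, is reported as log2 fold change.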

[2] = compound: CC[C@@H]1C(=O)N(C)c2cnc(Nc3ccc(C(=O)N[C@H]4CC[C@H](N5CCN(CC6CC6)CC5)CC4)cc3OC)nc2N1C(C)C [volasertib]
How it was run: as §1

[3] = compound: CC[C@H](C)N1C=C(C2=C(C=C(C=C21)C3=CN=C(C=C3)N4CCNCC4)C(=O)NCC5=C(C=C(NC5=O)C)C)C
How it was run: as §1

[4] = compound: CCn1cc(-c2ccnc3[nH]c(-c4cccc(CN(C)C)c4)cc23)c(-c2ccc(NC(=O)N(C)C)cc2)n1
How it was run: as §1

[5] = compound: CN(C)CC(=O)Nc1ccc2[nH]c(=O)c3ccccc3c2c1
How it was run: as §1

[6] = compound: CN1C2=C(C3=C1C(=O)N(N=C3)CC4=CC(=CC=C4)N)SC(=C2)S(=O)C
How it was run: as §1

[7] = compound: CN1CCC(CNc2ccc3ncc(-c4cccc(OC(F)(F)F)c4)n3n2)CC1
How it was run: as §1

[8] = compound: CC[C@H](C)[C@@H](C(=O)N[C@@H]([C@@H](C)O)C(=O)N[C@@H](CC(C)C)C(=O)[C@]1(CO1)C)NC(=O)[C@H]([C@@H](C)CC)N(C)C(=O)C [epoxomicin]
How it was run: as §1

[9] = compound: CCn1c(C(=O)N(C2CC2)C2CC2)cc2c3c(ncn3C)c(Nc3cc(C)n(C)n3)nc21
How it was run: as §1

[10] = compound: CN(CCOC1=CC=C(C=C1)C[C@H]2C(=O)NC(=O)S2)C3=CC=CC=N3 (racemic) [rosiglitazone]
How it was run: as §1

Measured: log2 fold change

HDAC10 (UniProt Q969S8)
inactive: [1] -0.113 | [2] -0.041 | [3] 0.028 | [4] -0.179 | [5] 0.224 | [6] -0.107 | [7] 0.055

HAGHL isoform 2 (UniProt Q6PII5)
inactive: [3] -0.001 | [8] -0.035 | [9] 0.033 | [5] -0.001 | [10] -0.019 | [6] 0.028

HAUS8 (UniProt Q9BT25)
inactive: [2] 0.003 | [3] 0.106 | [4] 0.388 | [5] -0.073 | [7] -0.121

GSTM5 (UniProt P46439)
inactive: [2] 0.084 | [3] -0.063 | [8] -0.063 | [9] 0.069 | [4] 0.04 | [5] 0.012 | [10] 0.061 | [6] -0.031 | [7] 0.009

GTPBP8 (UniProt Q8N3Z3)
inactive: [1] 0.068 | [2] -0.17 | [3] 0.376 | [9] 0.307 | [5] -0.03

HACE1 (UniProt Q8IYU2)
inactive: [9] -0.037

HEATR1 (UniProt Q9H583)
inactive: [2] -0.194 | [3] -0.197 | [8] -0.115 | [9] -0.251 | [4] -0.062 | [5] 0.112 | [10] -0.065 | [6] 0.243 | [7] -0.122

HAUS7 isoform 2 (UniProt Q99871)
inactive: [5] -0.103

HACD2 (UniProt Q6Y1H2)
inactive: [2] -0.154 | [9] -0.011

GTF2H1 (UniProt P32780)
inactive: [1] -0.278 | [9] -0.094 | [4] 0.081 | [5] -0.122 | [7] 0.03

HGF (UniProt P14210)
inactive: [1] 0.03 | [3] -0.081 | [8] -0.152 | [10] 0.002 | [6] 0.195

HECTD4 (UniProt Q9Y4D8)
inactive: [9] -0.053 | [5] 0.158

GZF1 (UniProt Q9H116)
inactive: [5] 0.126 | [6] 0.137

HDAC8 (UniProt Q9BY41)
inactive: [8] -0.008

HEXD isoform 2 (UniProt Q8WVB3)
inactive: [2] -0.008 | [8] 0.057 | [9] -0.032 | [4] 0.043 | [5] -0.394 | [6] -0.118 | [7] 0.063

HES1 (UniProt Q14469)
inactive: [9] 0.006 | [4] -0.005 | [6] 0.012 | [7] 0.046

GTPBP4 (UniProt Q9BZE4)
inactive: [1] 0.102 | [3] -0.133 | [8] -0.329 | [4] -0.04 | [5] -0.06 | [10] -0.145 | [6] 0.472 | [7] 0.289

GTPBP6 (UniProt O43824)
inactive: [1] -0.07 | [3] -0.041 | [8] 0.026 | [4] -0.079 | [5] 0.034 | [6] -0.13 | [7] -0.007

HAUS5 (UniProt O94927)
inactive: [1] 0.187 | [2] -0.002 | [3] 0.068 | [4] 0.257 | [6] 0.372 | [7] 0.42

H3-3A (UniProt P84243)
inactive: [1] -0.083 | [2] -0.239 | [3] 0.147 | [5] -0.083 | [6] 0.045

HABP4 (UniProt Q5JVS0)
inactive: [8] 0.05 | [9] -0.021 | [10] 0.186

HERPUD1 (UniProt Q15011)
inactive: [2] 0.007 | [9] -0.061 | [5] 0.007

HBD (UniProt E9PEW8)
inactive: [3] 0.121 | [9] -0.083 | [4] -0.151 | [7] 0.132

HGFAC (UniProt Q04756)
inactive: [2] 0.039 | [3] -0.034 | [8] -0.172 | [9] -0.15 | [10] 0.061 | [6] 0.601

HDAC5 isoform 3 (UniProt Q9UQL6)
inactive: [1] -0.004 | [3] -0.024 | [8] -0.036 | [9] 0.026 | [4] 0 | [10] 0.018 | [6] -0.072 | [7] -0.095

HBZ, A0A494C057
inactive: [1] 0.203 | [3] -0.079

H1-0 (UniProt P07305)
inactive: [1] 0.175 | [6] 0.029

GYG2 (UniProt O15488)
inactive: [9] -0.093

HAGHL (UniProt Q6PII5)
inactive: [1] 0.068 | [2] 0.003 | [8] -0.01 | [9] -0.035 | [10] -0.103 | [6] 0.024

HFM1 (UniProt A2PYH4)
inactive: [2] -1.53 | [10] 0.222 | [6] -0.044

HERPUD2 (UniProt Q9BSE4)
inactive: [9] -0.059 | [5] 0.057 | [10] -0.145 | [6] 0.37

HEXIM2 (UniProt Q96MH2)
inactive: [8] -0.12 | [4] 0.203 | [5] 0.071 | [7] -0.077

Retrieved one by one from the entries so far (2):
HEXD isoform 2 (UniProt Q8WVB3)
inactive: [2] -0.008 | [8] 0.057 | [9] -0.032 | [4] 0.043 | [5] -0.394 | [6] -0.118 | [7] 0.063

HDAC5 isoform 3 (UniProt Q9UQL6)
inactive: [1] -0.004 | [3] -0.024 | [8] -0.036 | [9] 0.026 | [4] 0 | [10] 0.018 | [6] -0.072 | [7] -0.095

Carrying on.

HAUS2 (UniProt Q9NVX0)
inactive: [1] 0.131 | [2] -0.398 | [9] 0.124 | [6] 0.3

GTF3C3 (UniProt Q9Y5Q9)
inactive: [1] 0.038 | [2] 0.125 | [3] 0.062 | [9] 0.081 | [4] -0.126 | [10] 0.007 | [6] -0.281 | [7] 0.07

HGD (UniProt Q93099)
inactive: [8] -0.227

GSPT1 isoform 2 (UniProt P15170)
inactive: [3] -0.053

HELLS (UniProt Q9NRZ9)
inactive: [8] -0.164 | [4] -0.191 | [10] 0.026 | [7] -0.012

HAUS3 (UniProt Q68CZ6)
inactive: [1] -0.013 | [2] -0.14 | [8] -0.183 | [9] -0.015 | [5] -0.094 | [6] 0.229
